Assay results published in the supplement of paper PMC12067093, “Discovery and optimisation of a covalent ligand for TRIM25 and its application to targeted protein ubiquitination” (Chemical Science, 2025).
This is one part of the list.

Amino acid sequences for entries named in this document (tags omitted). A change or cut given only in a name is not applied to a line headed by its entry.
UniProt O76071: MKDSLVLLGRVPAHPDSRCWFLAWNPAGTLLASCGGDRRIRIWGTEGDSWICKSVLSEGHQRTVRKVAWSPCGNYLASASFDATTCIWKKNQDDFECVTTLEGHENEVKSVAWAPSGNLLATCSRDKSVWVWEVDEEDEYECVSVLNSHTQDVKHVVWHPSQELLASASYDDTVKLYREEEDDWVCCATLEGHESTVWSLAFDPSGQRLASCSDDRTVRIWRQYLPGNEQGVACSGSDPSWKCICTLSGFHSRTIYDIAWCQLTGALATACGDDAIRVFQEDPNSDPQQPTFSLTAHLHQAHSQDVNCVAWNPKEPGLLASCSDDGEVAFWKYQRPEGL
UniProt Q14839: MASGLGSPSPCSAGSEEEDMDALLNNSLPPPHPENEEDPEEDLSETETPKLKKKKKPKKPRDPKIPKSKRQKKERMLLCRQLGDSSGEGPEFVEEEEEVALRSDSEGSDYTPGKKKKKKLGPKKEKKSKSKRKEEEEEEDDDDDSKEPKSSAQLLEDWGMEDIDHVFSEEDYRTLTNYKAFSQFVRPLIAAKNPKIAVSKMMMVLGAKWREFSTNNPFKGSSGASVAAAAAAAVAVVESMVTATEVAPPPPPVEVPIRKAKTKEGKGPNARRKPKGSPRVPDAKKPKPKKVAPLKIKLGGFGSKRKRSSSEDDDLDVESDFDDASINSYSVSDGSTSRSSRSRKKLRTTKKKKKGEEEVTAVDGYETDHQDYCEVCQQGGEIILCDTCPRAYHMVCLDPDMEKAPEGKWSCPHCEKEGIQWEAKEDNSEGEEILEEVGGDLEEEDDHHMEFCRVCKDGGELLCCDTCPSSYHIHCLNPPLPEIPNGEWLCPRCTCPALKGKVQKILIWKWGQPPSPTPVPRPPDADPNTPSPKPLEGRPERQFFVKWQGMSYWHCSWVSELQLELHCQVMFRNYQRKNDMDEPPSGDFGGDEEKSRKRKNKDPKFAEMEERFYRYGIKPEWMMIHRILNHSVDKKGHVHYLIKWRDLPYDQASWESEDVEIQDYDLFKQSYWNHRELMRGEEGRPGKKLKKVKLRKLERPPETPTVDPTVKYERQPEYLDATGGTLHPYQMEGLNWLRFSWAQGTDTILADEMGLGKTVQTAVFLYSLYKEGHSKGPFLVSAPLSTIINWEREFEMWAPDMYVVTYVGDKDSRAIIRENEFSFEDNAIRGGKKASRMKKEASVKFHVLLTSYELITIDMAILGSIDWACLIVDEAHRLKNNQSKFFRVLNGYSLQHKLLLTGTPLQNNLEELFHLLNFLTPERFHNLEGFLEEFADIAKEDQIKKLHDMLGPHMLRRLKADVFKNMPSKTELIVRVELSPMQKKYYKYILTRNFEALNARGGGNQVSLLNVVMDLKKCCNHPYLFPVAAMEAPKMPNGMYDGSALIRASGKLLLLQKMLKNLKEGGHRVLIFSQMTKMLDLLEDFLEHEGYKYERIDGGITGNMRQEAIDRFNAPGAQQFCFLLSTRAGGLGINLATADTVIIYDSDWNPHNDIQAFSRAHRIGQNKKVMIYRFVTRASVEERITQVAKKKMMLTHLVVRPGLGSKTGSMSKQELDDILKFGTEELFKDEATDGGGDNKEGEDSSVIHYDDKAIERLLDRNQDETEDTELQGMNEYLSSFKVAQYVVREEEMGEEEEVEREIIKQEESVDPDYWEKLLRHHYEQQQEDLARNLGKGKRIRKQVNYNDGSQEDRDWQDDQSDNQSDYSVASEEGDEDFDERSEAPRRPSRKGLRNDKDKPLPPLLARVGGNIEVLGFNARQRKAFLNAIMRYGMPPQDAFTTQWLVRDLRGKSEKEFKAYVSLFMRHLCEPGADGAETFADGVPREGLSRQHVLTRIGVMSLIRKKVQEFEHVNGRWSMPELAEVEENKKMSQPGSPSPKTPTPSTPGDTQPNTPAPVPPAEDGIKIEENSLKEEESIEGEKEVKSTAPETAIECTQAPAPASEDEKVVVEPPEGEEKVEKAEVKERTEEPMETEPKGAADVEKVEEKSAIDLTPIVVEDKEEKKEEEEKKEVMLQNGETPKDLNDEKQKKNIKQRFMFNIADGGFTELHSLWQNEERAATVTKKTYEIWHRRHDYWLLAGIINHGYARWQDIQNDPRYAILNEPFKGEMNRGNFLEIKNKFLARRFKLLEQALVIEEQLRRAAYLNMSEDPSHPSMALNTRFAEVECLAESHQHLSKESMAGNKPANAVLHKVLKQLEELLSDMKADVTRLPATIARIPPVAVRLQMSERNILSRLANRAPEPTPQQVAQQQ
UniProt Q14008: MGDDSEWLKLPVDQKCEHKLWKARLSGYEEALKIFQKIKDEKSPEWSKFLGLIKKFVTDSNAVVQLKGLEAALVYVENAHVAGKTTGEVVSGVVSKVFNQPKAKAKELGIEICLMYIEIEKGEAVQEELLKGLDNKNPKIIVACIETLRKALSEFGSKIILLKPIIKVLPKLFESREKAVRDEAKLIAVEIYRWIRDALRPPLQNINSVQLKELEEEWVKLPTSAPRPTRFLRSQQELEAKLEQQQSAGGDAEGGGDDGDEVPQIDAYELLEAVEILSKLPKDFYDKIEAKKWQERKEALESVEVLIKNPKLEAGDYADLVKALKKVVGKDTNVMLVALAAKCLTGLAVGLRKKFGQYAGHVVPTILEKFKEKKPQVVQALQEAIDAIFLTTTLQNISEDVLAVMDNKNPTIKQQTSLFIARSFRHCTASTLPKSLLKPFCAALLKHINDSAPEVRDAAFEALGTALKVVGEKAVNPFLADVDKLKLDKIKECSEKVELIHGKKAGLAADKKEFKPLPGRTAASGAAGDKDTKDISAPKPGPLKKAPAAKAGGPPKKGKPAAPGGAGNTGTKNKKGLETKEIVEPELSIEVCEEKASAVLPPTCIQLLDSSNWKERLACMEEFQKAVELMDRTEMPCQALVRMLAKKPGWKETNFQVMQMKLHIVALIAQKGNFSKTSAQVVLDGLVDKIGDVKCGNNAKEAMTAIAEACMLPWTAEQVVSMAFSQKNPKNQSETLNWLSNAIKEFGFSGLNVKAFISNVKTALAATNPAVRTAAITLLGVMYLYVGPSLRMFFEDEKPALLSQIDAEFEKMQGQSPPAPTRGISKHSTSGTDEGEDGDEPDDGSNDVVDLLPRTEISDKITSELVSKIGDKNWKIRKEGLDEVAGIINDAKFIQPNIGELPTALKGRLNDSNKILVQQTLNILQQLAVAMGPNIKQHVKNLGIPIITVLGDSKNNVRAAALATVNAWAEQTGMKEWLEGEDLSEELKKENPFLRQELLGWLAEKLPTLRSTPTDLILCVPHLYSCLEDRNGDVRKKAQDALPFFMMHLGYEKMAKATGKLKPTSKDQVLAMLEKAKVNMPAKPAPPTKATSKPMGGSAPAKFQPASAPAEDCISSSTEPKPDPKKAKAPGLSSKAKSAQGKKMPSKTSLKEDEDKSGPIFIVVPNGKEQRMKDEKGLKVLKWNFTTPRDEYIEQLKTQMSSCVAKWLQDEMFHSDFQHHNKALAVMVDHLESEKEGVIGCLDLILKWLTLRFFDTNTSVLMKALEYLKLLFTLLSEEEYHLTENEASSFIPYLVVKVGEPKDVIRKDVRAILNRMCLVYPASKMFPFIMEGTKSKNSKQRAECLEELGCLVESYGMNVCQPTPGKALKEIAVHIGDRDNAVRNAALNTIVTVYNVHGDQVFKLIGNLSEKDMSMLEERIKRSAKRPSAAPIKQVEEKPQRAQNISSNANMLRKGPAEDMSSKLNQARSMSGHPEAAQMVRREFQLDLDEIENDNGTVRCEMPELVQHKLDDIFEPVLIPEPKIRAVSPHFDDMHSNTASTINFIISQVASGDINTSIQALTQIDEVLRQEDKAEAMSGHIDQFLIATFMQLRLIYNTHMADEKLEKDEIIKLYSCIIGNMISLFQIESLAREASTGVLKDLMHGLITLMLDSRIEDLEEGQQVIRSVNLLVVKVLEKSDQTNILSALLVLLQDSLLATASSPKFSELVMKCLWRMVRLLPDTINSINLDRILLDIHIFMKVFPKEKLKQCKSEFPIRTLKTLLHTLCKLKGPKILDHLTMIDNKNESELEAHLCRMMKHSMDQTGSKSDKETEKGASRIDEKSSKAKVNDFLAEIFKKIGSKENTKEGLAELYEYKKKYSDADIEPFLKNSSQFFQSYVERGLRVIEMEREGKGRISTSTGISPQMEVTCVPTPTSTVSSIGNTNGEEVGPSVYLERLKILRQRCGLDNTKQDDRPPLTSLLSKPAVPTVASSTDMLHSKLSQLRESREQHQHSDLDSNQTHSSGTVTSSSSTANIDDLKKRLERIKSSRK
UniProt O96005: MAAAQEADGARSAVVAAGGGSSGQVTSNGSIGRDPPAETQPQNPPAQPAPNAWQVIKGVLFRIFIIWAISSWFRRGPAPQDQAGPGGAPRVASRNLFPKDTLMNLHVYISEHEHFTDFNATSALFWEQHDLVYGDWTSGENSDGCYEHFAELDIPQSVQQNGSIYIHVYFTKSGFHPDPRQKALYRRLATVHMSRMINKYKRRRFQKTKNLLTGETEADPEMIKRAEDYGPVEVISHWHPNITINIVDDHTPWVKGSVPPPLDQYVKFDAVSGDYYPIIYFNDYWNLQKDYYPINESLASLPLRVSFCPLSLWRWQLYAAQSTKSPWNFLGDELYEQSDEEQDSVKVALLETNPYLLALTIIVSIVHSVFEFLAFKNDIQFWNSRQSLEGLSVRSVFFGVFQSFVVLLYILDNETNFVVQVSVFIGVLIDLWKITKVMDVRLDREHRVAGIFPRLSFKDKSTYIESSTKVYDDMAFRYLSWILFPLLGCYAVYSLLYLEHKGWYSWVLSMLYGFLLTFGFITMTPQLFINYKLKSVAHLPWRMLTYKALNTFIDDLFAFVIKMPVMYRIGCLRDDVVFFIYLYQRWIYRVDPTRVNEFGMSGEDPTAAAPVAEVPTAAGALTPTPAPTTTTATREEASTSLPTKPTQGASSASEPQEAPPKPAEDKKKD
UniProt O75122: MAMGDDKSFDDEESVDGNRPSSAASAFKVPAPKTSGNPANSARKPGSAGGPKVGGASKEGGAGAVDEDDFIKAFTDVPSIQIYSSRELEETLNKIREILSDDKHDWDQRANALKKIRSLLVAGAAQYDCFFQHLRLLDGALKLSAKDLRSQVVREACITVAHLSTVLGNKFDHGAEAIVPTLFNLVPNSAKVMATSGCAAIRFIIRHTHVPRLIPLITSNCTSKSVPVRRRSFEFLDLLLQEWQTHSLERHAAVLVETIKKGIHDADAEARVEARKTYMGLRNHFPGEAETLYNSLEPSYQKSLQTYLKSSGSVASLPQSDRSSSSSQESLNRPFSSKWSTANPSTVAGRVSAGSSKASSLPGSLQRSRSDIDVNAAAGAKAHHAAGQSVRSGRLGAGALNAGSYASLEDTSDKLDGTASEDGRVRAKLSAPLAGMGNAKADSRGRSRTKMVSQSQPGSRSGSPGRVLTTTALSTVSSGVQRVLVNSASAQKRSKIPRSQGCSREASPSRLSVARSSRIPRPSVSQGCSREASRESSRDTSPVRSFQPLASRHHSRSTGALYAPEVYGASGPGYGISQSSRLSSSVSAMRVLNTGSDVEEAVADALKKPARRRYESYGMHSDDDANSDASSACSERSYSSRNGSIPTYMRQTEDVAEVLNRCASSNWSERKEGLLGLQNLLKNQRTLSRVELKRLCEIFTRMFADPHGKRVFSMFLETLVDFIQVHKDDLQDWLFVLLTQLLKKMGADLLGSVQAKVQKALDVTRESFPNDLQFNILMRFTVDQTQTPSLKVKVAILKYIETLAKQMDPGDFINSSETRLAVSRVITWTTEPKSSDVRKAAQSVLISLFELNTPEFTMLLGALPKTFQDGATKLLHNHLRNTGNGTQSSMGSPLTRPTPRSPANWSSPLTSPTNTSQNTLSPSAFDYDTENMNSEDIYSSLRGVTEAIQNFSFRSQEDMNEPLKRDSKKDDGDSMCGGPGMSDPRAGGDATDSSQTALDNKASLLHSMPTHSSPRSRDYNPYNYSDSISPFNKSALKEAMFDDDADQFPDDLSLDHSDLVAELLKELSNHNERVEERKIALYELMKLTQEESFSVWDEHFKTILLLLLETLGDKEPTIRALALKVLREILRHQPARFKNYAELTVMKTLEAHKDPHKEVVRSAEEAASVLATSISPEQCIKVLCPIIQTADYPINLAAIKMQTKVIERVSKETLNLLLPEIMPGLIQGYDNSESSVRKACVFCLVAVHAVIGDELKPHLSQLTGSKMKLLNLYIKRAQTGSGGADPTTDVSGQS
UniProt Q9UHD1: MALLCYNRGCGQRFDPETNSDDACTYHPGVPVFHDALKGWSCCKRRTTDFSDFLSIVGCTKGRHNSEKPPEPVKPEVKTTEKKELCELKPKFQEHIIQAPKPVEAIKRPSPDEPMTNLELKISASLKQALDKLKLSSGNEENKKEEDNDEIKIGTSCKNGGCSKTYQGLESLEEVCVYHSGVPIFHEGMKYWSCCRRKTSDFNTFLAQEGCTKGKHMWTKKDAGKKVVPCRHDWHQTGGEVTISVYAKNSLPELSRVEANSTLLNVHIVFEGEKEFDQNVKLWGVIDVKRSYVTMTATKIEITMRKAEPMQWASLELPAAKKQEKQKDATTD

Compound: Cc1cc(ccc1-c1ccccc1)C(=O)N1CCCN(CC1)C(=O)CCl [compound 10]
Test: probe-labelled cysteine peptide fold change vs DMSO (competition) (log2 fold change); higher = less target engagement (more negative = stronger competition)
Conditions: THP-1, incubation time: 4 h
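Further: competitive profiling in live THP-1 cells: cysteine peptides tagged with an iodoacetamide desthiobiotin (IA-DTB) probe, intensity after compound treatment relative to DMSO-treated cells.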

Target | probe-labelled cysteine peptide fold change (10 µM) | probe-labelled cysteine peptide fold change (50 µM)
CLTCL1_P53675_918_DPHLACVAYER (UniProt P53675) | 0.036 | -0.146
CIAO1_O76071_34_CWFLAWNPAGTLLASCGGDRR (UniProt O76071) | -0.326 | -0.453
CHCHD3_Q9NX63_204+214_CSALATQYMHCVNHAK (UniProt Q9NX63) | -0.255 | -0.00818
CMC2_Q9NRP2_14_MHPDLSPHLHTEECNVLINLLK (UniProt Q9NRP2) | -0.179 | 0.174
CHD4_Q14839_493_CTCPALK (UniProt Q14839) | 0.0162 | 0.156
CKAP5_Q14008_592_EIVEPELSIEVCEEK (UniProt Q14008) | -0.274 | -0.0224
CLPTM1_O96005_308_VSFCPLSLWR (UniProt O96005) | -0.221 | 0.177
CFL2_Q9Y281_80_LLPLNDCR (UniProt Q9Y281) | -0.0257 | 0.119
CLIC1_O00299_178_KFLDGNELTLADCNLLPK (UniProt O00299) | -0.0831 | -0.362
CMC1_Q7Z7K0_77_ECLTAYYNDPAFYEECK (UniProt Q7Z7K0) | -0.309 | -0.0941
CLASP2_O75122_502_SQGCSR (UniProt O75122) | -0.158 | -0.69
CHORDC1_Q9UHD1_59_TTDFSDFLSIVGCTK (UniProt Q9UHD1) | 0.109 | 0.0902
CLIP2_Q9UDT6_525_RGEIEELQQCLLHSGPPPPDHPDAAEILR (UniProt Q9UDT6) | -0.0951 | 0.134
CKAP5_Q14008_1019_STPTDLILCVPHLYSCLEDR (UniProt Q14008) | -0.0401 | 0.165
CHAF1A_Q13111_79_SPDLEASLDTLENNCHVGSDIDFRPK (UniProt Q13111) | -0.25 | -0.331
CLASP2_O75122_528_IPRPSVSQGCSR (UniProt O75122) | -0.118 | -0.436
CHD6_Q8TD26_975_FCEEDIDQILQR (UniProt Q8TD26) | -0.0469 | 0.164

Not a retest: an excerpt of the list.
Target | probe-labelled cysteine peptide fold change (10 µM) | probe-labelled cysteine peptide fold change (50 µM)
CLPTM1_O96005_308_VSFCPLSLWR (UniProt O96005) | -0.221 | 0.177
CFL2_Q9Y281_80_LLPLNDCR (UniProt Q9Y281) | -0.0257 | 0.119

(listing goes on)

Target | probe-labelled cysteine peptide fold change (10 µM) | probe-labelled cysteine peptide fold change (50 µM)
CHD4_Q14839_1019_CCNHPYLFPVAAMEAPK (UniProt Q14839) | 0.0187 | -0.293
CLTC_Q00610_1257_EVCFACVDGK (UniProt Q00610) | -0.0958 | 0.161
CLTC_Q00610_151_HSSLAGCQIINYR (UniProt Q00610) | 0.161 | 0.273
CIAPIN1_Q6FI81_288_CASCPYLGMPAFKPGEK (UniProt Q6FI81) | 0.0106 | -0.654
CIZ1_Q9ULV3_687_QSLRPFCTVCNR (UniProt Q9ULV3) | -0.0792 | -0.0645
CMAS_Q8NFW8_405_AVGYICK (UniProt Q8NFW8) | 0.0477 | -0.099
CIAPIN1_Q6FI81_251_NCTCGLAEELEK (UniProt Q6FI81) | -0.254 | -0.998
CHORDC1_Q9UHD1_86_ELCELK (UniProt Q9UHD1) | -0.0657 | 0.205
CHERP_Q8IWX8_69_LALEQQQLICK (UniProt Q8IWX8) | -0.253 | 0.0379
CIC_Q96RK0_1506_VCLQLK (UniProt Q96RK0) | -0.0417 | -0.878
CLTC_Q00610_1565_RECFGACLFTCYDLLRPDVVLETAWR (UniProt Q00610) | 0.162 | 0.238
CHM_P24386_102_TIQHVEVFCYASQDLHEDVEEAGALQK (UniProt P24386) | -0.112 | 0.0483
CIAO1_O76071_245_CICTLSGFHSR (UniProt O76071) | -0.0431 | -0.0194
CIT_O14578_1019_TTCTMLEEQVMDLEALNDELLEK (UniProt O14578) | 0.0843 | -0.0477
CLIC1_O00299_178_FLDGNELTLADCNLLPK (UniProt O00299) | -0.111 | -0.000847
CIC_Q96RK0_336_APGSSSCGAER (UniProt Q96RK0) | -0.332 | -0.624
CLTCL1_P53675_459_LECSEELGDLVK (UniProt P53675) | 0.0211 | 0.516
